Here are results for three molecules from publication PMC11449006.

No constants are given. Whether binding was seen depends on the method and setting. In cells and extracts the contact can be indirect. These calls come from enrichment with a bait or labelling near it, and not all partners need be listed. A no says only that the protein was not detected with the bait.

First the molecules themselves.
B1: RIBOSOMAL PROTEIN L12-C (RPL12-C) (protein, UniProt P36212 55-187)
chain: AVEAPEKIEKIGSEISSLTLEEARILVDYLQDKFGVSPLSLAPAAAAVAAPADGGAAAVVEEQTEFDVVINEVPSSSRIAVIKAVRALTSLALKEAKELIEGLPKKFKEGITKDEAEEAKKTLEEAGAKVSIA
B2: PHOTOSYSTEM I ASSEMBLY3 (PSA3) (protein, UniProt Q9M3C6 46-277)
chain: AYIEKPNSFSTFANKVIGSLPVIGLLARIISDEGGVGRDLVDFAEFRKRVGNKCTPDDSRAFYEFQQRRGKAGEPLYVLLCCWVAAVGAGLLKSEEILEGVTRVSISNDLEFEEQNFIALMTEARQRRAKLNIDAPTIPMELRVEKALEGIYACCFRRGLIEEEDEKLLKVMLIAVFPSVEKSEIERIIKEKATRVEEGGEEENVMAKRLPKEAIQMQMKDLEFLQQQNIES
B3: TRANSLOCASE OF THE OUTER MITOCHONDRIAL MEMBRANE 40 (TOM40) (protein, UniProt Q9LHE5 1-309)
chain: MADLLPPLTAAQVDAKTKVDEKVDYSNLPSPVPYEELHREALMSLKSDNFEGLRFDFTRALNQKFSLSHSVMMGPTEVPAQSPETTIKIPTAHYEFGANYYDPKLLLIGRVMTDGRLNARLKADLTDKLVVKANALITNEEHMSQAMFNFDYMGSDYRAQLQLGQSALIGATYIQSVTNHLSLGGEIFWAGVPRKSGIGYAARYETDKMVASGQVASTGAVVMNYVQKISDKVSLATDFMYNYFSRDVTASVGYDYMLRQARVRGKIDSNGVASALLEERLSMGLNFLLSAELDHKKKDYKFGFGLTVG

The experiment deals with CEPA1-FLAG (Arabidopsis thaliana). The experiment can be described thus: affinity purification with mass spectrometry; anti-FLAG M2 magnetic beads; thylakoid membranes of cepa1-3-C1 (CEPA1-FLAG) and WT (control) solubilised in 1% (w/v) β-DM in 25BTH20G buffer pH 7.0, 2 h at 4 °C; eluates by LC-MS/MS, MaxLFQ; enriched if at least 2-fold over the WT IP with P < 0.05, three replicates.
B1: the binding result is reported as “no binding”.

B2: the binding entry is given as “binds”.

Turning to B3, the binding result is “no binding”.
